Laboratory results published in publication PMC4490394 (Scientific Reports, 2015).

Test system: VCaP cells
Assay: VCaP proliferation assay (WST-1)
Format: cell-based
Conditions: Homo sapiens, 96 h, read-out: IC50, androgen-induced VCaP cell proliferation
Method: VCaP cells were treated with a submaximal concentration of mibolerone (0.1 nM) and increasing concentrations of test compounds in steroid-free assay medium supplemented with 4 mM GlutaMAX. After a 4-day incubation with the compounds, cell viability was measured using a WST-1 cell proliferation assay (Roche), according to manufacturer’s instructions. […]

IC50: 410 nM
Compound: CNC(=O)c1ccc(N2C(=S)N(c3ccc(C#N)c(C(F)(F)F)c3)C(=O)C2(C)C)cc1F [Enzalutamide, enzalutamide, reference compound]
